Measurements: patent US6030955A, “Methods of affecting intracellular phosphorylation of tyrosine using phosphorothioate oligonucleotides, and antiangiogenic and antiproliferative uses thereof” (The Trustees of Columbia University in The City of New York …, priority 1996, dated 2000)

Protein sequences, listed by entry. Tags and fused reporters are not part of them. Lines headed by an entry give the natural chain unless they say otherwise; changes in a name come on top.
UniProt P35918: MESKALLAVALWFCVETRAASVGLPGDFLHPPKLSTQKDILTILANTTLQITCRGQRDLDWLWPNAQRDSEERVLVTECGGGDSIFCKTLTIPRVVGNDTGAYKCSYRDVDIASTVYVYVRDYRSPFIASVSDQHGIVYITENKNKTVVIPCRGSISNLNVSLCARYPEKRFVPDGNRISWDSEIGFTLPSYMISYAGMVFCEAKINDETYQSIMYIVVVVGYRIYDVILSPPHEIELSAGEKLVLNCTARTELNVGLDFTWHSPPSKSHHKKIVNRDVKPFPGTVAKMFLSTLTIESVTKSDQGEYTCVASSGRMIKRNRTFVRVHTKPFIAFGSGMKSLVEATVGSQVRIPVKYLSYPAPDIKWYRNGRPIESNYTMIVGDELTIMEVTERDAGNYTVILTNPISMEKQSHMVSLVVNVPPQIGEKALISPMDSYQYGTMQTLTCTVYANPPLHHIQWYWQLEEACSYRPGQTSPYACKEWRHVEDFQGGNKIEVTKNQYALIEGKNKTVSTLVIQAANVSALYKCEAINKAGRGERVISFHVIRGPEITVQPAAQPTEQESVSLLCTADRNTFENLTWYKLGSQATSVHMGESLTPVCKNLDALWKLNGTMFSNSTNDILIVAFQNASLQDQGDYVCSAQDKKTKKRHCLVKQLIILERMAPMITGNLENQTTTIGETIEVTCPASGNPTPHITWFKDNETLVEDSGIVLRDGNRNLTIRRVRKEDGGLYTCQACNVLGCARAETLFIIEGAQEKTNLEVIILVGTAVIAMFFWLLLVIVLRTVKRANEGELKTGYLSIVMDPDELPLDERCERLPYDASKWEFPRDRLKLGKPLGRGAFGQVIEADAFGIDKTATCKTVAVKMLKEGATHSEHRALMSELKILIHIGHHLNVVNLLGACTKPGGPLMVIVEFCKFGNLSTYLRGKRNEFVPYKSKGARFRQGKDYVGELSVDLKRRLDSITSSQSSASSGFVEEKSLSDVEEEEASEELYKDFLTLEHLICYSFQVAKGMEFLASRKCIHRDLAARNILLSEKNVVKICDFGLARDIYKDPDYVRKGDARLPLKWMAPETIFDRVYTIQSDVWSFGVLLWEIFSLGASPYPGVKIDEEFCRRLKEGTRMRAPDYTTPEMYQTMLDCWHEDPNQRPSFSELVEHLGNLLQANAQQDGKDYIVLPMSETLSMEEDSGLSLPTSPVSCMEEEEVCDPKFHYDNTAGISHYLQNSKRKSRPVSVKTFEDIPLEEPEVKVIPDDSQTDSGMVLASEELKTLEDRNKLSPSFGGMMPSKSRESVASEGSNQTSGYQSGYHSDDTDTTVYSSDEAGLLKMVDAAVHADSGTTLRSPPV

Target: flk-1/fms chimeric receptor (mouse flk-1 extracellular / human c-fms) (Mus musculus / Homo sapiens) (UniProt P35918)
Assay: competition with a labelled probe
Settings: PS (phosphorothioate oligodeoxynucleotide), protein on the cell surface, single-stranded DNA

Row | Sequence | binding result | binding result (variant of #2)
1 | GCCGGGCCAT [#2] | binds | –
2 | GTTGGGTTAT [#2T] | – | binds

The exact form of at least one protein or probe is not confirmed. At least one result comes from cells or an extract, where the contact may be indirect.
